From PMC6802120, “Concatenation of 14-3-3 with partner phosphoproteins as a tool to study their interaction” (Scientific Reports, 2019)
These are yes or no findings as the source states them, for the method shown.

Target: T1, pCH1 (phosphorylated peptidic chimera of 14-3-3σ(clu3)∆C with the HSPB6 phosphopeptide, residues 12-19) (human) (UniProt P31947)
T1 sequence (chain, phosphoserine at Ser16 of the HSPB6 peptide (phosphorylated by PKA)): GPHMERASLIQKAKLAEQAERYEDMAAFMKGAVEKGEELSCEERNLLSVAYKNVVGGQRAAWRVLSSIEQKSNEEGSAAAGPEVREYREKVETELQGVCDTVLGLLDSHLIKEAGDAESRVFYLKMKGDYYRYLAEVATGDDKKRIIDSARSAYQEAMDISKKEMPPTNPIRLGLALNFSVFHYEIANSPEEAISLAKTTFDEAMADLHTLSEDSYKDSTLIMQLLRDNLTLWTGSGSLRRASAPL
Test: SEC; fluorescence-assisted size-exclusion spectrochromatography, Superdex 200 Increase 5/150, SEC buffer; detection at 230 nm absorbance and Trp fluorescence (excitation 298 nm, emission 360 nm); proteins alone and mixed; both purified

B1: HSPB6 ACD (α-crystallin domain, residues 72-149) (domain or fragment, human, UniProt O14558 72-149, looked up)
chain: GHFSVLLDVKHFSPEEIAVKVVGEHVEVHARHEERPDEHGFVAREFHRRYRLPPGVDPAAVTSALSPEGVLSIQAAPA
notes: human small heat shock protein HSPB6, α-crystallin domain, residues 72-149; also called ACD dimer; isolated ACD
With B1 the binding was “no binding (tested: very high micromolar concentrations)”.
